Construct, isoform or probe ends are uncertain for at least one entry. For part of these data: Negatives hold for the conditions tested. For part of these data: At least one verdict rests on a figure or table, not on a statement of the authors. For part of these data: Tags and fusion partners may be left off the protein sequences shown. For part of these data: Weaker means in comparison with the reference protein, sequence or condition of that experiment.

Amino acid sequences for entries named in this document (tags omitted).
UniProt Q5SHY0, whole entry G169C: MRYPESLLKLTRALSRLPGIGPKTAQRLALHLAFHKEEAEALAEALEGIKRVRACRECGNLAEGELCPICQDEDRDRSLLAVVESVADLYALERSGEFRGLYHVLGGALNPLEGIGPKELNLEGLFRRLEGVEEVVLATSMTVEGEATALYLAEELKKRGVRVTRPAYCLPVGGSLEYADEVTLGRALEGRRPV

The results in this text go back to article doi:10.1101/2019.12.17.877662.

Data set [1] deals with T1, TtRecF (Thermus thermophilus) (UniProt Q5SLM9).
T1 sequence (looked up, limits assumed): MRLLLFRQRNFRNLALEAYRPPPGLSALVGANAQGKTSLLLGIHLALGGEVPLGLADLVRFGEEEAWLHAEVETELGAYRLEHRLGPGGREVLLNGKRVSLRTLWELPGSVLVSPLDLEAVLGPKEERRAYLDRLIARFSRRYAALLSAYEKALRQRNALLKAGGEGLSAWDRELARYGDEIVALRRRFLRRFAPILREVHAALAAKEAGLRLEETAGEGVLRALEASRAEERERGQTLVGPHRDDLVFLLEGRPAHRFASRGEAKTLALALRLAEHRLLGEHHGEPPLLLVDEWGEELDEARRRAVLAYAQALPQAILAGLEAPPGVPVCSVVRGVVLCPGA
In words: BLI. As to conditions: no RecR.

Data set [2] deals with TtRecF + TtRecR. In words: BLI.
Data set [3] deals with TtRecO + TtRecR G169C. As to the kind of experiment: BLI. The following applies: 250 nM RecO with 500 nM RecR G169C, smaller shift than with wild-type RecR.
Data set [4] concerns TtRecO + TtRecR. As to the kind of experiment: BLI. The following applies: 250 nM RecO with 500 nM RecR.
Data set [5] concerns the target TtRecR (Thermus thermophilus) (UniProt Q5SHY0). As to the kind of experiment: BLI. As to conditions: ssDNA pre-coated with TtSSB, negligible association.
Data set [6] deals with TtRecR G169C (Thermus thermophilus) (UniProt Q5SHY0). In words: BLI. The following applies: ssDNA pre-coated with TtSSB, negligible association.
Data set [7] deals with TtSSB + TtRecO + TtRecR. In words: BLI. The following applies: RecO and RecR added to TtSSB-coated ssDNA.
Data set [8] deals with TtSSB + TtRecO. In words: BLI. The following applies: RecO added to TtSSB-coated ssDNA.
For data set [9], the system named is TtRecO (Thermus thermophilus). As to the kind of experiment: EMSA. As to conditions: no band shift.
Data set [10] has as its system TtRecO + TtRecR G169C. As to the kind of experiment: EMSA. The following applies: shift missing.
Data set [11] has as its system TtRecO + TtRecR. In words: EMSA.

For “GCAATGAAGTACGCTTGCCAGCTGCAGTCATGATTG [biotinylated 36-mer ssDNA]”, the binding result in data set [1] is on record as “no binding”; in [2] (slight shift, negligible affinity compared to RecOR), “binds more weakly”; in [2] (ssDNA pre-coated with TtSSB, negligible association) it was “no binding”; in [3], “binds”; in data set [4], “binds”; in data set [5] it was “no binding”. In addition, the binding result in data set [6] is on record as “no binding”; in [7], “binds”; in data set [8] it was “binds”.

Turning to “TTTTTTTTTTTTTTTTTTTTTTTTTTTTTTTTTTT [FAM-dT35]”, the binding result in data set [9] is given as “no binding”; in [10], “no binding”; in [11] it was “binds”.
